Test results from paper PMC10235086.

T1: Rat1-ProteinA (S. cerevisiae (endogenous in yeast W303-1A)) (UniProt Q02792)
T1 sequence: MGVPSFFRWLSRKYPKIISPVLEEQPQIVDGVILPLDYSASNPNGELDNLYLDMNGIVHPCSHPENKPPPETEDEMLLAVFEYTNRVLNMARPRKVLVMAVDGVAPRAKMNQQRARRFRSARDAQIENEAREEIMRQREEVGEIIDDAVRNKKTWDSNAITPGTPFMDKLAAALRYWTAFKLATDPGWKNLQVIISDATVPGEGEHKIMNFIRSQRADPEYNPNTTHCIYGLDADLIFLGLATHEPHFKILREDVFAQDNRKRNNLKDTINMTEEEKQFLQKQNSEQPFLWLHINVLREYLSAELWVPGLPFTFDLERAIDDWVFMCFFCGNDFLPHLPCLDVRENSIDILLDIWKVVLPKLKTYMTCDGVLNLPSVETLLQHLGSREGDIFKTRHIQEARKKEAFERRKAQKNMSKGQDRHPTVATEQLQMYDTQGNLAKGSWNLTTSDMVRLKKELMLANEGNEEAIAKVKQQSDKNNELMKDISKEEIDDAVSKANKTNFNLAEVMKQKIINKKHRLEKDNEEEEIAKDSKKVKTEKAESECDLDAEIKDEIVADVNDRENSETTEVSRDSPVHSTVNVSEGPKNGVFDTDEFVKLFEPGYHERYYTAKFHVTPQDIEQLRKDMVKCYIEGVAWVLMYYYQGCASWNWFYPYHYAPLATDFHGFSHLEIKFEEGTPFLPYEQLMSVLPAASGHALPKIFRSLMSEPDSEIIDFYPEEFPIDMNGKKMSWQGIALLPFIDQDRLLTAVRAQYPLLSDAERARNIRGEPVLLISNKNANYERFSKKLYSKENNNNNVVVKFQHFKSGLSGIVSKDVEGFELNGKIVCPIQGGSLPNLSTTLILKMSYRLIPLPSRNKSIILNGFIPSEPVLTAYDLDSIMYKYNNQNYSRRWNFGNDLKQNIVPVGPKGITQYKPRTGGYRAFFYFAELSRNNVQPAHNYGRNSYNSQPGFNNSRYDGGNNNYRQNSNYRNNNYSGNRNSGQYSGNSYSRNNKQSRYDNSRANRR

T2: ProteinA-Rio1 (S. cerevisiae) (UniProt Q12196)
T2 sequence: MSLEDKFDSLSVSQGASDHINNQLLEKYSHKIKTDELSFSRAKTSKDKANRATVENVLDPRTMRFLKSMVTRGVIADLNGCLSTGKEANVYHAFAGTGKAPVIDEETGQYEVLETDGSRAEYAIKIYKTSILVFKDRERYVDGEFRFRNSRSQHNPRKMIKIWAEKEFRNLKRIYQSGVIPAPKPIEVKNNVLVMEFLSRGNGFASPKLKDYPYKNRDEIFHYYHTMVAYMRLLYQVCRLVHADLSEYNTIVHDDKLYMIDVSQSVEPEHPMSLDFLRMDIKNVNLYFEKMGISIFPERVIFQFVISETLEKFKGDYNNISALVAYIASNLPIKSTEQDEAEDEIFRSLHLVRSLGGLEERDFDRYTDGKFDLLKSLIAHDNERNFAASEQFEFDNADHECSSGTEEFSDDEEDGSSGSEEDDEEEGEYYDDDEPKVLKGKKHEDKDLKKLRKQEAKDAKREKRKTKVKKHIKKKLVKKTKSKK

B1: Las1 (protein, UniProt P36146 1-502)
chain: MIPPRIVPWRDFAELEELKLWFYPKSKGTIEDKRQRAVQRVQSYRLKGSQYLPHVVDSTAQITCAVLLDEKEACLGVHQDSIPIRLSYVMALIRFVNGLLDPTQQSQFAIPLHTLAAKIGLPSWFVDLRHWGTHERDLPGLEMLRWAANEALSWLYDHYWNDEELEDDRDDDDDDDDTGYGYRRNDKLEKYMESLTKTLDKWKRLRNEFLEYKWVWENANDSLITSSNFSGDNLVNYDAEKRKSSHASSSETMIRENLRQWQELWKLSIYHNVVLEKFFNNYDPLLLKVLMLNLNNFDWKVIEWVARNYRTQQDDSNITTILKRKFNAWKELQKRLLDVIINNLNNKNFKNKWQNWEKLIDENASYLILYFCQSMLAKLETEKITGNSWRNKKRRKQIDSTVEIEAKLKENIDNLSLRFNEGEIKLYDFIPAEKDSVPLKKEVSPALKADTNDILGDLASLKQRMSSFGTVGKKNKQEENRATPVKNWSRVQNWKPKPFGVL
B2: Grc3 (protein, UniProt Q07845 1-632)
chain: MVIDSKQDLPQYTKDSGSESDSDSSNNFIVESPSIPSSKSATVVLNSEEYEDDEGDDLNGLDAELIDNITYEGDEDETMFVGLKEKQKLHLSGVFRLQVVKGGIVYNNVHYNASREILTFWHPLSQSIPTIDFSHFAGWQDTFFMPRNNRFKIRDEEFKSFPCVLRVFNSNHTGLLEAGHLYRDVNYLWKPKEPYFPLNERTTYHLLHESDRIQSLSVPGYWSTPLEKLYLSHKNAAYDTRIMVIGGKNSGKSTFLRLLLEKFTQDIRDSTTSQEELVYLDLDPGQPEYSLPDSISLNKILSSPISLGQHLCQGSNFQTLLQFYAGSSSPQDEPTSYLNCADKLIDHLEEQAFFGTSLLNLPGWIKGFGMQILNHIIRKYKPTHLLFLETANSKRHLDELTIPQSFSTSLRDAYAPEVVRVPAHSLNHTLSSRFHASQLRTFKILALFHKITQFDYDFAPLLKSAPLQISYGKGKSGIKGIQFPMEFQDLNPQDIKSALEGTVIGIYTYSGEDSLEVKSLNTFPILQSCTSSSKNFITLGLIHSIDTSQQIMNIYVPPCHTQILDKQPEDAQWIIVRNKTETPFCDFLPSPRTITWDDNIQIPFATFERRKKLEHVWKVRKNVMRRGQFMKR
B3: Rio1 (enzyme, UniProt Q12196 1-484)
chain: T2 sequence

Experiments:
[1] = target: T1, Rat1-ProteinA (S. cerevisiae (endogenous in yeast W303-1A)); experiment: affinity purification with mass spectrometry; Rat1 endogenously tagged at its C-terminus with Protein A; cells grown in YPDA; lysate on IgG-agarose beads as for Rio1; on-bead digestion, LC-MS/MS; untagged wild-type strain as negative control; three independent purifications
[2] = target: T2, ProteinA-Rio1 (S. cerevisiae); experiment: affinity purification with mass spectrometry; ProteinA-Rio1 expressed from PGAL1-10 (2% galactose, 2 h) in pep4∆ yeast; cleared lysate (50 mM Tris-Cl pH 7.5, 10% glycerol, 150 mM NaCl, 1 mM DTT, 0.4% NP-40) on rabbit IgG agarose beads overnight at 4 °C; washed with PBS-T; on-bead digestion …; untagged Rio1 as negative control; three independent purifications

| Binder | binding [1] | binding [2] |
| --- | --- | --- |
| B1 | binds | binds |
| B2 | binds | binds |
| B3 | no binding | – |

Results are given in words; binding and its absence hold for the method and conditions named. Binding seen in cells or lysates may run through a third protein. These calls come from enrichment with a bait or labelling near it, and not all partners need be listed. For some assays here: No binding means not detected with the bait.
